# Reference: PubChem BioAssay AID1259254 (NCATS, 2017)
# Screen: 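Gene knock-downs that lead to re-replication, shown by excess G2 DNA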 (primary screen)
# System: human HCT116 colorectal cancer cells
# Knock-down reagent: single siRNA against human genes
# Time to read-out: 3 days
# Measured: 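Imaged Hoechst DNA stain sorts each cell into a cycle phase by DNA amount; per plate, G2 fraction set to 0% for non-targeting and 100% for GMNN siRNA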
# Scale: G2 robust z-score and G2 cells, % of GMNN control: higher = more G2 cells, more excess DNA replication; raw share of cells in G2: higher = larger share of cells with G2 DNA content
# Call rule: 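An siRNA counts as active if its G2 robust z-score lies at least 5 MADs above the screen median; here such calls match roughly 38% of GMNN control or more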
# Shown is a random part of about 59,000 reagents. About 1,550 of them (2.6%) were called active. 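G2 share is only a proxy for re-replication; each gene was hit by three separate siRNAs, and active genes were retested.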 The raw values are shown without normalisation. Entries without a mark were called inactive. Reagents against one gene are numbered here. No sequences are given here. The record does not give: the amount of reagent.
gene,reagent no.,G2 robust z-score,"G2 cells, % of GMNN control",raw share of cells in G2 (%)
DPP6,1,0.676,7.72,5.07
DPP6,2,-0.609,-1.32,2.94
DPP6,3,6.44 (active),48.3,27.5
DPP6,4,-0.0953,2.3,3.94
DPP6,5,2.95,23.7,13.7
DPP6,6,-0.48,-0.411,3.02
ARSL,1,1.16,11.1,8.5
ARSL,2,0.287,4.99,6.85
ARSL,3,-0.439,-0.122,3.95
PRSS45P,1,-0.351,0.495,4.45
PRSS45P,2,-0.926,-3.55,4.1
PRSS45P,3,0.0674,3.44,5.61
KBTBD13,1,-0.56,-0.971,2.98
KBTBD13,2,0.373,5.59,7.03
KBTBD13,3,-0.499,-0.543,3.59
IL36R,1,1.55,13.8,10.8
IL36R,2,-1.17,-5.27,2.82
IL36R,3,0.164,4.12,6.71
PLEKHF2,1,0.291,5.01,4.56
PLEKHF2,2,-0.947,-3.7,4.24
PLEKHF2,3,-0.351,0.498,3.79
STOX2,1,0.321,5.22,6.41
STOX2,2,-0.686,-1.86,3.57
STOX2,3,0.752,8.26,5.65
OR7E85BP,1,-0.456,-0.238,3.22
OR7E85BP,2,1.42,13,7.95
OR7E85BP,3,1.63,14.4,7.05
EXOSC5,1,1.76,15.4,10.7
EXOSC5,2,-0.393,0.204,4.51
EXOSC5,3,3.1,24.8,17.3

4 of these entries in another layout:
| gene | reagent no. | G2 robust z-score | G2 cells, % of GMNN control | raw share of cells in G2 (%) |
| --- | --- | --- | --- | --- |
| PLEKHF2 | 3 | -0.351 | 0.498 | 3.79 |
| STOX2 | 1 | 0.321 | 5.22 | 6.41 |
| STOX2 | 2 | -0.686 | -1.86 | 3.57 |
| STOX2 | 3 | 0.752 | 8.26 | 5.65 |
